Patent publication US20260284208A1, “SYSTEM” (Oxford University Innovation Limited, priority 2023, published 2026)
This continues a long series; more values of the same kind are listed elsewhere.

Tested on: library of 8,380 IKZF3 degrons (ZF-eGFP/mCherry reporter) in Jurkat cells
Assay: Pooled library screen (FACS, NGS, limma voom LogFC of positive vs negative read counts)
Assay type: cell-based, human
Experimental: A library of 8,380 IKZF3 degrons was cloned into pLVX-Sprout to create the eGFP/mCherry protein degradation reporter plasmid pool. A lentivirus pool was then generated using the Lenti-X lentiviral vector production method.
Jurkat cells were transduced at a multiplicity of infection of <0.3 with the lentivirus vector library in order to maximise the number of cells with a single integration. Transductions were carried out in 6 well TC-treated cell culture dishes (Falcon) with 3×10^6 cells per well. Cells were incubated for 2 days at 37° C. and 5% CO2 before the supernatant was removed and replaced with fresh media. 6 days post-transduction, mCherry+ cells were isolated via FACS using the FACS Aria Fusion (BD) in a buffer containing PBS (Gibco), 2 mM EDTA (Gibco), 25 mM HEPES (Sigma) and 1% BSA (Sigma). 8 days later, cells were treated with DMSO or a thalidomide analog for 18 hours at 37° C. and 5% CO2. mCherry+GFPlow and NOT(mCherry+GFPlow) cells were sorted by FACS using the FACS Aria Fusion (BD). DMSO treated cells were used to set the mCherry+GFPlow gate and dead cells were excluded from sorting by staining cells with 1 μg/mL DAPI (ThermoFisher). gDNA was isolated using the Maxwell RSC 48 (Promega). gDNA from cells that were unsorted and untreated were also isolated to determine the library representation on the day of compound treatment. Throughout the screen >600× coverage of the library was maintained. 3 biological replicates were carried out with a new transduction taking place each time.
A two-step PCR was used where the first PCR (PCR1) amplified the integrated degron sequence from gDNA and the second PCR (PCR2) added Illumina adaptors and barcodes to permit multiplexing. See Supp F for PCR1 and PCR2 primers. Q5 Hot Start High-Fidelity 2× Master Mix (New England Biolabs) was used for both PCRs. Sufficient gDNA was amplified in PCR1 in order to maintain >600× coverage and amplicons were purified using solid phase reversible immobilization (SPRI) beads (Beckman Coulter). Purified PCR1 products were analysed on the Tapestation 4200 (Agilent) to confirm purity prior to proceeding to PCR2. Sufficient PCR1 product was amplified in PCR2 in order to maintain >600× coverage and amplicons were run on a 2% agarose TAE gel. Target bands were excised and purified using the NucleoSpin Gel and PCR Clean-up Kit (Machery Nagel). Amplicons were analysed on the Tapestation 4200 and quantified using Qubit dsDNA HS kit (ThermoFisher). PCR products were pooled and sequenced as paired-reads on the NovaSeq (Illumina) using a SP2 200 cycles kit (Illumina).
Count distributions, percentage of read mapping, library coverage and replicate correlation per sample were assessed for QC purposes.
To carry out the library screen, we used the same plasmid construct as in our earlier flow cytometry assays, but pooling all 8,380 mutants together into one Jurkat population, ensuring a copy number of one plasmid per cell (FIG. 4B). […] These GFP-negative cells were then separated from the remaining GFP-positive population using fluorescence activated cell sorting (FACS). These two populations were then sequenced and the relative abundance of every mutant in both populations compared to provide a log FC value for each mutant sequence. This value indicated how frequently a sequence is observed in the GFP-negative population relative to the GFP-positive population, and therefore how effective a degron it is for that particular IMID compound.

`O=C1CCC(N2C(=O)c3ccc(N4CCOCC4)cc3C2=O)C(=O)N1` (stereo not drawn) [B03] gave a B03_logFC (degron 1073 (SEQ ID NO 3542) 46F_47F_49E_50V_52G_53A_54Q_55F_67L) of 3.602, a B03_logFC (degron 1075 (SEQ ID NO 3516) 46F_47F_49E_50V_52G_53A_54S_55F_67L) of 3.66 and a B03_logFC (degron 1076 (SEQ ID NO 3490) 46F_47F_49E_50V_52G_53A_54T_55F_67L) of 3.737. For the same molecule, the B03_logFC (degron 1077 (SEQ ID NO 3616) 46F_47F_49E_50V_52G_53A_54V_55F_67L) was 3.441, the B03_logFC (degron 1141 (SEQ ID NO 3618) 46F_47F_49P_50I_52G_53A_54C_55F_67L) was 3.436 and the B03_logFC (degron 1151 (SEQ ID NO 3517) 46F_47F_49P_50I_52G_53A_54N_55F_67L) was 3.658. It also gave a B03_logFC (degron 1152 (SEQ ID NO 3617) 46F_47F_49P_50I_52G_53A_54P_55F_67L) of 3.441, a B03_logFC (degron 1153 (SEQ ID NO 3513) 46F_47F_49P_50I_52G_53A_54Q_55F_67L) of 3.664 and a B03_logFC (degron 1156 (SEQ ID NO 3538) 46F_47F_49P_50I_52G_53A_54T_55F_67L) of 3.613. For the same molecule, the B03_logFC (degron 1191 (SEQ ID NO 3579) 46F_47F_49P_50V_52G_53A_54N_55F_67L) was 3.511, the B03_logFC (degron 1193 (SEQ ID NO 3602) 46F_47F_49P_50V_52G_53A_54Q_55F_67L) was 3.472 and the B03_logFC (degron 1196 (SEQ ID NO 3567) 46F_47F_49P_50V_52G_53A_54T_55F_67L) was 3.538. For the same molecule, the B03_logFC (degron 1512 (SEQ ID NO 3607) 46F_47H_49E_50I_52G_53A_54P_55F_67L) was 3.462, the B03_logFC (degron 1632 (SEQ ID NO 3637) 46F_47H_49P_50I_52G_53A_54P_55F_67L) was 3.386 and the B03_logFC (degron 1692 (SEQ ID NO 3604) 46F_47I_49D_50I_52G_53A_54P_55F_67L) was 3.464. The B03_logFC (degron 1752 (SEQ ID NO 3572) 46F_47I_49E_50I_52G_53A_54P_55F_67L) was 3.53, the B03_logFC (degron 1792 (SEQ ID NO 3599) 46F_47I_49E_50V_52G_53A_54P_55F_67L) was 3.484 and the B03_logFC (degron 1812 (SEQ ID NO 3622) 46F_47I_49N_50I_52G_53A_54P_55F_67L) was 3.429. It also gave a B03_logFC (degron 1872 (SEQ ID NO 3520) 46F_47I_49P_50I_52G_53A_54P_55F_67L) of 3.654, a B03_logFC (degron 1912 (SEQ ID NO 3454) 46F_47I_49P_50V_52G_53A_54P_55F_67L) of 3.937 and a B03_logFC (degron 2472 (SEQ ID NO 3619) 46F_47M_49E_50I_52G_53A_54P_55F_67L) of 3.432. For the same molecule, the B03_logFC (degron 2512 (SEQ ID NO 3560) 46F_47M_49E_50V_52G_53A_54P_55F_67L) was 3.549, the B03_logFC (degron 2592 (SEQ ID NO 3593) 46F_47M_49P_50I_52G_53A_54P_55F_67L) was 3.489 and the B03_logFC (degron 2632 (SEQ ID NO 3548) 46F_47M_49P_50V_52G_53A_54P_55F_67L) was 3.588. For the same molecule, the B03_logFC (degron 2952 (SEQ ID NO 3537) 46F_47Q_49E_50I_52G_53A_54P_55F_67L) was 3.615, the B03_logFC (degron 2992 (SEQ ID NO 3591) 46F_47Q_49E_50V_52G_53A_54P_55F_67L) was 3.49 and the B03_logFC (degron 3072 (SEQ ID NO 3541) 46F_47Q_49P_50I_52G_53A_54P_55F_67L) was 3.604. For the same molecule, the B03_logFC (degron 3132 (SEQ ID NO 3571) 46F_47R_49D_50I_52G_53A_54P_55F_67L) was 3.531, the B03_logFC (degron 3192 (SEQ ID NO 3453) 46F_47R_49E_50I_52G_53A_54P_55F_67L) was 3.984 and the B03_logFC (degron 3232 (SEQ ID NO 3544) 46F_47R_49E_50V_52G_53A_54P_55F_67L) was 3.599. For the same molecule, the B03_logFC (degron 3252 (SEQ ID NO 3596) 46F_47R_49N_50I_52G_53A_54P_55F_67L) was 3.487, the B03_logFC (degron 3312 (SEQ ID NO 3485) 46F_47R_49P_50I_52G_53A_54P_55F_67L) was 3.763 and the B03_logFC (degron 3352 (SEQ ID NO 3535) 46F_47R_49P_50V_52G_53A_54P_55F_67L) was 3.616. The B03_logFC (degron 3792 (SEQ ID NO 3615) 46F_47T_49P_50I_52G_53A_54P_55F_67L) was 3.444, the B03_logFC (degron 3912 (SEQ ID NO 3534) 46F_47V_49E_50I_52G_53A_54P_55F_67L) was 3.616 and the B03_logFC (degron 3952 (SEQ ID NO 3536) 46F_47V_49E_50V_52G_53A_54P_55F_67L) was 3.615. The B03_logFC (degron 4032 (SEQ ID NO 3507) 46F_47V_49P_50I_52G_53A_54P_55F_67L) was 3.683, the B03_logFC (degron 4080 (SEQ ID NO 3512) 46F_47W_49D_50I_52G_53A_54A_55F_67L) was 3.668 and the B03_logFC (degron 4081 (SEQ ID NO 3521) 46F_47W_49D_50I_52G_53A_54C_55F_67L) was 3.652. For the same molecule, the B03_logFC (degron 4086 (SEQ ID NO 3632) 46F_47W_49D_50I_52G_53A_54H_55F_67L) was 3.407, the B03_logFC (degron 4093 (SEQ ID NO 3509) 46F_47W_49D_50I_52G_53A_54Q_55F_67L) was 3.676 and the B03_logFC (degron 4094 (SEQ ID NO 3471) 46F_47W_49D_50I_52G_53A_54R_55F_67L) was 3.824.
